Laboratory results from PubChem BioAssay AID1347426 (Functional Genomics Laboratory (NCATS/FGL), 2020).
Hit rate of the full screen: of about 31,000 sequences, about 1,400 (4.5%) were called active.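 The calls were made as follows: active = median seed-adjusted z-score above 1 or below -1; inactive = the rest.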 Some of the results follow.

Experiment: Novel Modifiers of Survival Motor Neuron (SMN) Protein: Gene Identification via Genome-wide siRNA Screen
Details: HEK293T SMN2-luciferase reporter, siRNA knockdown, 72 h; actives lie on both sides
How it was run: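 Each of three siRNAs per gene is reverse-transfected (1 pmol) into reporter HEK293T cells whose luciferase output tracks SMN protein level. After 72 h culture, ONE-Glo luminescence is control-normalized, log10-transformed and MAD-standardized; Common Seed Analysis deprioritizes seed-driven hits.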

| Sequence | median seed-adjusted z-score |
| --- | --- |
| UGCUUUACCUAACUACAGATT against SEMA7A | inactive: 0.0522 |
| GGACAUCGUCUCUUCUUAUTT against HEXA | inactive: -0.551 |
| CAUUAUUCAGCCUAACUAUTT against MTG1 | inactive: -0.19 |
| CCACUACACCUUCUACUUUTT against PAQR8 | inactive: 0 |
| GUGAUGUCAUUAGGCAGAATT against CRIP3 | active: 1.7 |
| CCUCAGUGUGGGUAUAAGATT against HIF1A | inactive: 0.228 |
| CAAGAUCAUUCAGCAAUAATT against PIP5KL1 | inactive: -0.819 |
| CAGCCGCUACUCAAAGAAATT against BST1 | inactive: -0.28 |
| GCGGAUUAAAUGAUGAUUATT against ADAMTS18 | inactive: 0.824 |
| GUGUUAACUCUAAUUUACATT against 5-Mar | inactive: 0 |
| CGAUUACUCUUCUUCUGCATT against SYPL1 | inactive: -0.457 |
| GGACAUUCGUCAGAUUUAUTT against TEAD1 | active: 1.31 |
| GGCUCUCAGAUUGUUGACATT against GABARAPL2 | inactive: 0.528 |
| GUACUGACUUUAACAUAGATT against FUT10 | inactive: -0.629 |
| GGACCGCAGUAAACUUCGATT against MIZF | inactive: 0.365 |
| GCCCUCUGUUGGAUAUCUATT against AZIN1 | active: -1.14 |
| AGCCUGUACUUAUGACCGATT against ACTRT1 | inactive: 0 |
| GCUCGCAUCUAAACACCUUTT against LIG4 | inactive: 0.576 |
| CCAGCUUCCUAACCCAAGATT against ACY3 | inactive: 0.568 |
| CCACAUCCGAGACAAUCCATT against CRHR2 | inactive: -0.211 |
| CAUCAGGAAUUACGGGACATT against GPR123 | inactive: 0 |
| GGGUUGGAUGUGCUCAUUUTT against NOP14 | inactive: -0.344 |
| GCAUCGGCAUUGAAGGCUUTT against ALOX15B | inactive: 0.156 |

14 successive records from above:

| Sequence | median seed-adjusted z-score |
| --- | --- |
| UGCUUUACCUAACUACAGATT against SEMA7A | inactive: 0.0522 |
| GGACAUCGUCUCUUCUUAUTT against HEXA | inactive: -0.551 |
| CAUUAUUCAGCCUAACUAUTT against MTG1 | inactive: -0.19 |
| CCACUACACCUUCUACUUUTT against PAQR8 | inactive: 0 |
| GUGAUGUCAUUAGGCAGAATT against CRIP3 | active: 1.7 |
| CCUCAGUGUGGGUAUAAGATT against HIF1A | inactive: 0.228 |
| CAAGAUCAUUCAGCAAUAATT against PIP5KL1 | inactive: -0.819 |
| CAGCCGCUACUCAAAGAAATT against BST1 | inactive: -0.28 |
| GCGGAUUAAAUGAUGAUUATT against ADAMTS18 | inactive: 0.824 |
| GUGUUAACUCUAAUUUACATT against 5-Mar | inactive: 0 |
| CGAUUACUCUUCUUCUGCATT against SYPL1 | inactive: -0.457 |
| GGACAUUCGUCAGAUUUAUTT against TEAD1 | active: 1.31 |
| GGCUCUCAGAUUGUUGACATT against GABARAPL2 | inactive: 0.528 |
| GUACUGACUUUAACAUAGATT against FUT10 | inactive: -0.629 |

Later entries

| Sequence | median seed-adjusted z-score |
| --- | --- |
| GGGUCCAUUUGAUAGCCUATT against SNX16 | inactive: -0.111 |
| GGAUGUUUAUUACCGGGAUTT against RPN1 | inactive: -0.375 |
| CUACUGGAGCAACACUGUATT against NDUFA4 | inactive: 0 |
| GGAAUUCGCUUUCCUGAAATT against BLVRA | inactive: 0.212 |
| GGAUGGUAAGUGGGCAAGATT against DDI1 | inactive: 0.259 |
| CGUGGACAGCUGCAGAAAATT against EDIL3 | inactive: 0 |
| CAAGGUCUCCUGUGCUGAATT against MYOG | inactive: -0.0972 |
| CAUCAGUCUUCGAACUCAATT against GPAM | inactive: 0.237 |
| GAUACAGUGUUGAAAAGUUTT against CST7 | inactive: 0.303 |
| CCUACAACAUUGUCCUUCUTT against CCR5 | inactive: -0.0281 |
| CAGCAACCCGGGUCAUGAATT against KIRREL | inactive: -0.74 |
| UCUUCGUUCUGAUUCCGGUTT against CLDN17 | inactive: 0 |
| GGUCGGUGAGAGGAAUAAATT against LSAMP | inactive: -0.12 |
| GAAUUUGUUCAUUAUCGUATT against UBE3A | inactive: 0.0949 |
| GAGGUGAUCCGGGUCUACATT against EHD3 | inactive: 0.569 |
| GGACCCAACCUCAAUGAAATT against ARFIP2 | inactive: 0.748 |
| CGAUACCGGCUGAUGCUAATT against PTPRB | inactive: -0.0981 |
| GUAAUACGAGGAAAUAGUATT against SNRPG | active: -3.09 |
| GACUAGGAAUAGAUUUACATT against VRK2 | inactive: -0.183 |
| GGACCACAAUGUACGGAAATT against ATP13A5 | inactive: 0.241 |
| GGAUGUACUUCUAUGAGUATT against B3GALNT1 | inactive: 0.128 |
| AGAUGAUCAGGGAGGCUGATT against CALM3 | inactive: 0.225 |
| GGUUAAGCAGCGCUUUUCATT against TESSP5 | inactive: 0 |

| Sequence | median seed-adjusted z-score |
| --- | --- |
| GCCUGAAUGCAGCCCAGUUTT against SP2 | inactive: -0.617 |
| GGCAGAAAUGUAAUAUUGATT against DCTN6 | inactive: 0.211 |
| GGAUUUGGAACUUAUUAAATT against STX12 | inactive: -0.797 |
| GGAGGGUUUCUAUCUUACUTT against WRN | inactive: -0.00482 |
| CCCUUGAUCGGGACAAUUUTT against KIFAP3 | inactive: 0.403 |
| CGGGAGAAGUCCUACCUGUTT against KIF19 | inactive: 0.342 |
| GGAUAGUUGUGGUAAGAAUTT against SRP14 | inactive: 0.0824 |
| UGGAAGAAUUUGUUUGUAATT against ADIPOR2 | inactive: -0.614 |
| CAGCCUUAAUUUGAAAGCATT against KCND3 | inactive: 0.282 |
| GGAAGAAAAUGACGAACCATT against POLR3D | inactive: -0.434 |
| UGUAGAAGCAGAACCCAAATT against OSBPL1A | inactive: 0.0845 |
| GCGUGAUCAUCGAUGUGGATT against SLC5A7 | inactive: 0.624 |
| UGAUGGAUGCGGAACUGUUTT against RALGDS | inactive: -0.235 |
| GCAAAGAUAGAAGAAGAUATT against DDI2 | active: 1.27 |
| GAGCUGACUUCGGAACUAATT against LCN2 | inactive: 0.123 |
| GCAAAGGUAUUUGAGCAUATT against CAT | inactive: 0 |
| GAGCGUAAAGUACCUGAUUTT against NMNAT3 | inactive: 0.0197 |
| CUAUAAUUCCAGAGCAUAATT against KLF5 | inactive: -0.338 |
| GCAGGAUGCUGUCAACAUATT against PSMD4 | active: 1.46 |
| AGACAGUGUGGGUCCUGGATT against CD300E | inactive: 0.337 |
| CCCUCACCGCUUUCAUCUUTT against TM7SF2 | inactive: -0.674 |
| CAGCGAAAAUGAUAUCAGATT against CTNNA3 | inactive: 0.249 |
| GGAGGGAUAUAACUAGAUATT against ACTR2 | inactive: 0.548 |
